Measurements as given in patent publication US8084644B2, “Iminopropene compound and use thereof” (Sumitomo Chemical Company, Limited, priority 2005, dated 2011).
Some of these results come from one statement about several compounds together. Some compounds share one range, which may span the group rather than tell each member.

What was measured:
Format in all cases: in vivo
Nilaparvata lugens = test: Test Example 4: spray test on brown rice planthopper on rice; settings: 500 ppm, first to second-instar larvae on rice, after 6 days
Tetranychus urticae = test: Test Example 8: spray test on two-spotted spider mites on kidney beans; settings: 500 ppm, after 8 days
Plutella xylostella = test: Test Example 12: cabbage test on diamondback, third-instar; settings: 200 ppm, after five days
Spodoptela litura = test: Test Example 13: cabbage test on common cutworm; settings: 200 ppm, fourth-instar, after four days
Experimental: 0.1 ml of the mixture of xylene and N,N-dimethylformamide (xylene:N,N-dimethylformamide=1:1) and 0.04 ml of the mixture of xylene and Sorpol 3005X (TOHO Chemical Industry Co. LTD) (xylene:Sorpol 3005X=1:9) were added to 16 mg of the each test compound. The mixture was diluted with water as that the active ingredient concentration came to prescribed concentration. Furthermore, spreader (Dain: Takeda Pharmaceutical Co. […] The test solution was applied to a cabbage (Brassicae oleracea) in a fifth-leaf stage at a rate 20 ml per pot. After air-drying, ten fourth-instar worm of common cutworm (Spodoptela litura) was placed onto the cabbage, and the cabbage was covered with a cup having holes. After four days, the number of dead worm was examined.

Adoxophyes orana = test: Test Example 14: apple seedling test on summer fruit tortrix; settings: first-instar larvae, after 7 days

| Compound | index number (surviving rate based on untreated check) (Nilaparvata lugens) | index number (number of survived female insect) (Tetranychus urticae) | index number (mortality) (Plutella xylostella) | index number (mortality) (Spodoptela litura) | index number (mortality) (Adoxophyes orana; 12.5 ppm) | index number (mortality) (Adoxophyes orana; 200 ppm) |
| --- | --- | --- | --- | --- | --- | --- |
| Cc1cccc(N=C(C=CSc2ccccc2)Sc2ccccc2)c1 [(32), Phenyl N-(3-methylphenyl)-3-phenylthiothioacrylimidate] | 3 (surviving rate 1 to 10%) | 3 (survived female insect 4 to 10) | 3 (mortality 80 to 99%) | 3 (mortality 80 to 99%) | 3 (mortality 80 to 99%) | – |
| C(=CC(=Nc1ccc(N2CCCCC2)cc1)Oc1ccccc1)Oc1ccccc1 [(196), Phenyl 3-phenoxy-N-(4-piperidinophenyl)acrylimidate] | – | – | 3 (mortality 80 to 99%) | 3 (mortality 80 to 99%) | – | 3 (mortality 80 to 99%) |
